# Measured values published in US8895511B2, “Use of sarcoplasmic CA2+-ATPase type 2 protein for diagnosing and treating learning or mental disorders” (priority 2009, dated 2014).
# For at least one compound, name, drawing or mass did not settle the structure.
# Legend:
# Format in all cases: cell-based, mouse
# [1] = test system: CA3-CA1 synapses in acute hippocampal slices; test: Paired-pulse facilitation (PPF) of fEPSPs, field potential recordings in hippocampal slices; conditions: Df(16)1/+ mice, CPA
# [2] = test system: presynaptic boutons in acute hippocampal slices; test: FM 1-43 dye-unloading (destaining) assay in acute hippocampal slices; conditions: mature Df(16)1/+ mice vs WT, CPA (50 μM)
# [3] = test system: presynaptic terminals of CA3 pyramidal neurons; test: Two-photon imaging of presynaptic Ca2+ transients in CA3 presynaptic terminals
# [4] = test system: CA3-CA1 synapses in acute hippocampal slices; test: PTP and LTP of fEPSPs induced by 200-Hz tetanization in hippocampal slices; conditions: CPA or thapsigargin (4 μm)
# [5] = evoked by 40 APs (200 Hz), in the presence of CPA
# [6] = WT mice, 200-Hz induction protocol
smiles,measurement,setting,value
"CC(=O)C1=C(O)[C@@H]2[C@H]3c4c[nH]c5cccc(c45)C[C@H]3C(C)(C)N2C1=O [CPA, cyclopiazonic acid]",effect on increase in PPF,[1],rescued the increase in PPF
same,effect on enhanced neurotransmitter release,[2],rescued enhanced neurotransmitter release
same,difference in amplitude of presynaptic Ca2+ transients between WT and Df(16)1/+ mice,[3]; [5],No significant difference
same,difference in decay of presynaptic Ca2+ transients between WT and Df(16)1/+ mice,[3]; [5],No significant difference
same,effect on presynaptic calcium dysregulation,"[3]; mutant Df(16)1/+ mice, CPA",rescued presynaptic calcium dysregulation
same,effect on enhancement of PTP and LTP,"[4]; Df(16)1/+ mice, 200-Hz tetanization",rescued the enhancement of PTP and LTP
same,WT fEPSP5 in the presence vs absence of inhibitor,[4]; [6],not significantly different
same,WT fEPSP360 in the presence vs absence of inhibitor,[4]; [6],not significantly different
